Assay results taken from ChEMBL document CHEMBL1123329, “Aromatase inhibitors. Synthesis and evaluation of mammary tumor inhibiting activity of 3-alkylated 3-(4-aminophenyl)piperidine-2,6-diones” (J Med Chem, 1986).

Target: T1, Aromatase (Homo sapiens, UniProt P11511)
T1 sequence (P11511 whole entry): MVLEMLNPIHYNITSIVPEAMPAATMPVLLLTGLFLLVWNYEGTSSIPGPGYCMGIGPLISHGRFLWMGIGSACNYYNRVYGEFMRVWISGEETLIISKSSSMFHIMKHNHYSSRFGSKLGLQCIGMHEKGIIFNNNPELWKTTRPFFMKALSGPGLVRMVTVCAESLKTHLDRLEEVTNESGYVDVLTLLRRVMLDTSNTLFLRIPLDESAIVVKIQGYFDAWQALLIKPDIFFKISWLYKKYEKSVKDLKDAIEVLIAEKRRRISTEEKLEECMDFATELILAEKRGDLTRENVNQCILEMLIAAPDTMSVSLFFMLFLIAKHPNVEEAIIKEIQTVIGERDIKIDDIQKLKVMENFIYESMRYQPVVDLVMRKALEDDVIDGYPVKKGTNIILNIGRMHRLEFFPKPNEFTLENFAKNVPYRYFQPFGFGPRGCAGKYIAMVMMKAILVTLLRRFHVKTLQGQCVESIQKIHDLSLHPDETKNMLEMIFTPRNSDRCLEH

Nc1ccc(C2CCC(=O)NC2=O)cc1 (stereo unspecified)
IC50: > 300 µM
